{"source": "the supplement of paper PMC8728848", "binders": {"B1": {"name": "Loc1 (Escherichia coli) (protein)", "chain": "APCALTNVGEQRGTYILKPLSMKGNLTAEKIENTGNIIECTDLQETTNAIKVHFLTQNALKFKVGSRHYIINFPFEYDGKKIELPGKSSYNLEEMLSAINFTIPYSIASVSDSSNTADIFPGTPFPLLFEIEVSSCTGNNTNCNSVRFNYNLNTILQVNLMTHHHHHH"}}, "experiment_in_all_cases": "glycan array binding signal (z-score within array); higher = stronger binding", "settings_in_all_cases": "glycan notation: IUPAC condensed, linker removed", "key": {"[1]": {"molecular_target": "Neu5Ac(a2-6)Gal(b1-4)GlcNAc(b1-3)Gal(b1-4)GlcNAc(b1-3)Gal(b1-4)GlcNAc(b1-2)Man(a1-3)[Neu5Ac(a2-6)Gal(b1-4)GlcNAc(b1-3)Gal(b1-4)GlcNAc(b1-3)Gal(b1-4)GlcNAc(b1-2)Man(a1-6)]GalNAc", "method_in_brief": "(§1)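 Glycan array binding is given as a within-array Z-score, which can be read as non-binding when negative. The arrays, 3228 of them, came from the Consortium for Functional Glycomics database and were retained only where the protein sequence was available. Z-scores were averaged across arrays of the same protein sequence at different concentrations or buffers and across linkers.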"}, "[2]": {"molecular_target": "Neu5Ac(a2-6)Gal(b1-4)GlcNAc(b1-3)Gal(b1-4)GlcNAc(b1-3)GalNAc", "method_in_brief": "as §1"}, "[3]": {"molecular_target": "Neu5Ac(a2-6)Gal(b1-4)GlcNAc(b1-3)Gal(b1-4)GlcNAc(b1-3)[Neu5Ac(a2-6)Gal(b1-4)GlcNAc(b1-3)Gal(b1-4)GlcNAc(b1-6)]GalNAc", "method_in_brief": "as §1"}, "[4]": {"molecular_target": "Neu5Ac(a2-6)Gal(b1-4)GlcNAc(b1-3)Gal(b1-4)GlcNAc(b1-6)[Gal(b1-3)]GalNAc", "method_in_brief": "as §1"}, "[5]": {"molecular_target": "Neu5Ac(a2-6)Gal(b1-4)GlcNAc(b1-3)Gal(b1-4)[Fuc(a1-3)]GlcNAc(b1-3)Gal(b1-4)[Fuc(a1-3)]GlcNAc", "method_in_brief": "as §1"}, "[6]": {"molecular_target": "Neu5Ac(a2-6)Gal(b1-4)GlcNAc(b1-3)GalNAc", "method_in_brief": "as §1"}, "[7]": {"molecular_target": "Neu5Ac(a2-6)Gal(b1-4)GlcNAc(b1-3)[Neu5Ac(a2-6)Gal(b1-4)GlcNAc(b1-6)]GalNAc", "method_in_brief": "as §1"}, "[8]": {"molecular_target": "Neu5Ac(a2-6)Gal(b1-4)GlcNAc(b1-6)GalNAc", "method_in_brief": "as §1"}, "[9]": {"molecular_target": "Neu5Ac(a2-6)Gal(b1-4)GlcNAc(b1-6)[Gal(b1-3)GlcNAc(b1-3)]Gal(b1-4)Glc", "method_in_brief": "as §1"}, "[10]": {"molecular_target": "Neu5Ac(a2-6)Gal(b1-4)GlcNAc(b1-6)[Gal(b1-3)]GalNAc", "method_in_brief": "as §1"}, "[11]": {"molecular_target": "Neu5Ac(a2-6)Gal(b1-4)GlcNAc6S", "method_in_brief": "as §1"}, "Neu5Ac(a2-6)GalNAc": {"molecular_target": "Neu5Ac(a2-6)GalNAc", "method_in_brief": "as §1"}, "[12]": {"molecular_target": "Neu5Ac(a2-6)GalNAc(b1-4)GlcNAc", "method_in_brief": "as §1"}, "[13]": {"molecular_target": "Neu5Ac(a2-6)GalNAc(b1-4)GlcNAc6S", "method_in_brief": "as §1"}, "[14]": {"molecular_target": "Neu5Ac(a2-6)GlcNAc(b1-4)GlcNAc", "method_in_brief": "as §1"}, "[15]": {"molecular_target": "Neu5Ac(a2-6)GlcNAc(b1-4)GlcNAc(b1-4)GlcNAc", "method_in_brief": "as §1"}, "Neu5Ac(a2-8)Neu5Ac": {"molecular_target": "Neu5Ac(a2-8)Neu5Ac", "method_in_brief": "as §1"}, "[16]": {"molecular_target": "Neu5Ac(a2-8)Neu5Ac(a2-3)Gal(b1-3)GalNAc(b1-4)[Neu5Ac(a2-3)]Gal(b1-4)Glc", "method_in_brief": "as §1"}, "[17]": {"molecular_target": "Neu5Ac(a2-8)Neu5Ac(a2-3)Gal(b1-3)GalNAc(b1-4)[Neu5Ac(a2-8)Neu5Ac(a2-3)]Gal(b1-4)Glc", "method_in_brief": "as §1"}, "[18]": {"molecular_target": "Neu5Ac(a2-8)Neu5Ac(a2-3)Gal(b1-4)Glc", "method_in_brief": "as §1"}, "[19]": {"molecular_target": "Neu5Ac(a2-8)Neu5Ac(a2-3)Gal(b1-4)GlcNAc", "method_in_brief": "as §1"}, "[20]": {"molecular_target": "Neu5Ac(a2-8)Neu5Ac(a2-3)[Gal(b1-3)GalNAc(b1-4)]Gal(b1-4)Glc", "method_in_brief": "as §1"}, "[21]": {"molecular_target": "Neu5Ac(a2-8)Neu5Ac(a2-3)[GalNAc(b1-4)]Gal(b1-4)Glc", "method_in_brief": "as §1"}, "[22]": {"molecular_target": "Neu5Ac(a2-8)Neu5Ac(a2-8)Neu5Ac", "method_in_brief": "as §1"}, "[23]": {"molecular_target": "Neu5Ac(a2-8)Neu5Ac(a2-8)Neu5Ac(a2-3)Gal(b1-4)Glc", "method_in_brief": "as §1"}, "[24]": {"molecular_target": "Neu5Ac(a2-8)Neu5Ac(a2-8)Neu5Ac(a2-3)[Gal(b1-3)GalNAc(b1-4)]Gal(b1-4)Glc", "method_in_brief": "as §1"}, "[25]": {"molecular_target": "Neu5Ac(a2-8)Neu5Ac(a2-8)Neu5Ac(a2-3)[GalNAc(b1-4)]Gal(b1-4)Glc", "method_in_brief": "as §1"}, "[26]": {"molecular_target": "Neu5Ac(a2-8)Neu5Ac(a2-8)Neu5Ac(a2-8)Neu5Ac(a2-3)[GalNAc(b1-4)]Gal(b1-4)Glc", "method_in_brief": "as §1"}, "[27]": {"molecular_target": "Neu5Ac(a2-8)Neu5Gc(a2-3)Gal(b1-4)GlcNAc", "method_in_brief": "as §1"}, "[28]": {"molecular_target": "Neu5Ac(b2-6)Gal(b1-4)GlcNAc", "method_in_brief": "as §1"}, "Neu5Ac(b2-6)GalNAc": {"molecular_target": "Neu5Ac(b2-6)GalNAc", "method_in_brief": "as §1"}, "[29]": {"molecular_target": "Neu5Ac9Ac(a2-3)Gal(b1-3)GlcNAc", "method_in_brief": "as §1"}, "[30]": {"molecular_target": "Neu5Ac9Ac(a2-3)Gal(b1-4)GlcNAc", "method_in_brief": "as §1"}, "[31]": {"molecular_target": "Neu5Ac9Ac(a2-6)Gal(b1-4)GlcNAc", "method_in_brief": "as §1"}, "[32]": {"molecular_target": "Neu5Gc(a2-3)Gal(b1-3)GlcNAc", "method_in_brief": "as §1"}, "[33]": {"molecular_target": "Neu5Gc(a2-3)Gal(b1-3)[Fuc(a1-4)]GlcNAc", "method_in_brief": "as §1"}, "Neu5Gc(a2-3)Gal(b1-4)Glc": {"molecular_target": "Neu5Gc(a2-3)Gal(b1-4)Glc", "method_in_brief": "as §1"}, "[34]": {"molecular_target": "Neu5Gc(a2-3)Gal(b1-4)GlcNAc", "method_in_brief": "as §1"}, "[35]": {"molecular_target": "Neu5Gc(a2-3)Gal(b1-4)GlcNAc(b1-3)Gal(b1-4)GlcNAc(b1-2)Man(a1-3)[Neu5Gc(a2-3)Gal(b1-4)GlcNAc(b1-3)Gal(b1-4)GlcNAc(b1-2)Man(a1-6)]Man(b1-4)GlcNAc(b1-4)GlcNAc", "method_in_brief": "as §1"}, "[36]": {"molecular_target": "Neu5Gc(a2-3)Gal(b1-4)[Fuc(a1-3)]GlcNAc", "method_in_brief": "as §1"}, "[37]": {"molecular_target": "Neu5Gc(a2-6)Gal(b1-4)GlcNAc", "method_in_brief": "as §1"}, "Neu5Gc(a2-6)GalNAc": {"molecular_target": "Neu5Gc(a2-6)GalNAc", "method_in_brief": "as §1"}, "[38]": {"molecular_target": "Neu5Gc(a2-8)Neu5Ac(a2-3)Gal(b1-4)GlcNAc", "method_in_brief": "as §1"}, "[39]": {"molecular_target": "Neu5Gc(a2-8)Neu5Gc(a2-3)Gal(b1-4)GlcNAc", "method_in_brief": "as §1"}, "[40]": {"molecular_target": "Neu5Gc(a2-8)Neu5Gc(a2-3)Gal(b1-4)GlcNAc(b1-3)Gal(b1-4)GlcNAc", "method_in_brief": "as §1"}}, "note": "The list shows a part of the results.", "data": [{"binder": "B1", "values": [{"measurement": "glycan array binding signal (z-score)", "setting": "[1]", "value": 1.65}, {"measurement": "glycan array binding signal (z-score)", "setting": "[2]", "value": -0.946}, {"measurement": "glycan array binding signal (z-score)", "setting": "[3]", "value": 0.271}, {"measurement": "glycan array binding signal (z-score)", "setting": "[4]", "value": -0.119}, {"measurement": "glycan array binding signal (z-score)", "setting": "[5]", "value": -0.526}, {"measurement": "glycan array binding signal (z-score)", "setting": "[6]", "value": 0.013}, {"measurement": "glycan array binding signal (z-score)", "setting": "[7]", "value": -0.356}, {"measurement": "glycan array binding signal (z-score)", "setting": "[8]", "value": -0.348}, {"measurement": "glycan array binding signal (z-score)", "setting": "[9]", "value": -0.628}, {"measurement": "glycan array binding signal (z-score)", "setting": "[10]", "value": -0.824}, {"measurement": "glycan array binding signal (z-score)", "setting": "[11]", "value": -0.419}, {"measurement": "glycan array binding signal (z-score)", "setting": "Neu5Ac(a2-6)GalNAc", "value": -0.762}, {"measurement": "glycan array binding signal (z-score)", "setting": "[12]", "value": 1.45}, {"measurement": "glycan array binding signal (z-score)", "setting": "[13]", "value": -0.365}, {"measurement": "glycan array binding signal (z-score)", "setting": "[14]", "value": -0.735}, {"measurement": "glycan array binding signal (z-score)", "setting": "[15]", "value": -0.73}, {"measurement": "glycan array binding signal (z-score)", "setting": "Neu5Ac(a2-8)Neu5Ac", "value": 0.04}, {"measurement": "glycan array binding signal (z-score)", "setting": "[16]", "value": 0.266}, {"measurement": "glycan array binding signal (z-score)", "setting": "[17]", "value": 0.203}, {"measurement": "glycan array binding signal (z-score)", "setting": "[18]", "value": 8.5}, {"measurement": "glycan array binding signal (z-score)", "setting": "[19]", "value": -0.065}, {"measurement": "glycan array binding signal (z-score)", "setting": "[20]", "value": 0.262}, {"measurement": "glycan array binding signal (z-score)", "setting": "[21]", "value": 0.28}, {"measurement": "glycan array binding signal (z-score)", "setting": "[22]", "value": -0.352}, {"measurement": "glycan array binding signal (z-score)", "setting": "[23]", "value": 0.255}, {"measurement": "glycan array binding signal (z-score)", "setting": "[24]", "value": 0.345}, {"measurement": "glycan array binding signal (z-score)", "setting": "[25]", "value": 0.741}, {"measurement": "glycan array binding signal (z-score)", "setting": "[26]", "value": 1.19}, {"measurement": "glycan array binding signal (z-score)", "setting": "[27]", "value": -0.211}, {"measurement": "glycan array binding signal (z-score)", "setting": "[28]", "value": -0.834}, {"measurement": "glycan array binding signal (z-score)", "setting": "Neu5Ac(b2-6)GalNAc", "value": -0.643}, {"measurement": "glycan array binding signal (z-score)", "setting": "[29]", "value": 0.131}, {"measurement": "glycan array binding signal (z-score)", "setting": "[30]", "value": -0.389}, {"measurement": "glycan array binding signal (z-score)", "setting": "[31]", "value": 0.667}, {"measurement": "glycan array binding signal (z-score)", "setting": "[32]", "value": -0.923}, {"measurement": "glycan array binding signal (z-score)", "setting": "[33]", "value": 0.041}, {"measurement": "glycan array binding signal (z-score)", "setting": "Neu5Gc(a2-3)Gal(b1-4)Glc", "value": -0.669}, {"measurement": "glycan array binding signal (z-score)", "setting": "[34]", "value": -1.23}, {"measurement": "glycan array binding signal (z-score)", "setting": "[35]", "value": 0.253}, {"measurement": "glycan array binding signal (z-score)", "setting": "[36]", "value": -1.04}, {"measurement": "glycan array binding signal (z-score)", "setting": "[37]", "value": -0.072}, {"measurement": "glycan array binding signal (z-score)", "setting": "Neu5Gc(a2-6)GalNAc", "value": 0.381}, {"measurement": "glycan array binding signal (z-score)", "setting": "[38]", "value": 0.15}, {"measurement": "glycan array binding signal (z-score)", "setting": "[39]", "value": 0.486}, {"measurement": "glycan array binding signal (z-score)", "setting": "[40]", "value": -0.565}]}]}
